According to PubChem BioAssay AID1347075 (National Center for Advancing Translational Sciences (NCATS), 2019):
The campaign covered roughly 400,000 compounds. About 5,500 (1.4%) were called active. Inconclusive means that the source gave no clear call. Such entries were picked first, then a sample of the others. Calls follow the shape of the dose curve; as a rule, active = well fitted cell-killing curve with a large enough effect; inconclusive = small, poorly fitted or top-dose-only effect, or effect the other way; inactive = flat fitted curve, though single readings scatter. Where the call is inconclusive, the potency comes from a doubtful curve fit.

Test: qHTS assay for MDR1-selective chemotherapeutics: Primary screen using the parental adenocarcinoma cell KB-3-1; also: nearly all actives have a fitted effect of over 60% in size
Conditions: KB-3-1 viability, CellTiter-Glo ATP luminescence, 72 h; activity change, negative = cytotoxic: at 46.1 µM (top of the series)
Procedure, shortened: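 Parental KB-3-1 adenocarcinoma cells in phenol-red-free DMEM with 10% FBS were pin-treated with compounds at several concentrations, incubated 72 h at 37 °C, and viability read by CellTiter-Glo luminescence; concentration-effect curves were fitted after normalization.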
% is scaled to controls: 0 for no effect and ±100 for the full control effect; potency is read from the fitted curve at half-maximal effect.

Compound | Potency | activity change, negative = cytotoxic
COc1cc(NC(=O)c2ccc(-c3c(C)noc3C)c3ccoc23)cc(OC)c1OC | inconclusive: 25.9 µM [cytotoxic, single point] | –
CC1(C)Cc2c(c(N3CCOCC3)nc3sc4c(NCc5ccccc5)nnnc4c23)CS1 | inconclusive: 5.17 µM [cytotoxic, single point] | –
Cc1c(C(=O)NCc2ccc3c(c2)OCO3)sc(=O)n1Cc1ccc(S(C)(=O)=O)cc1 | inconclusive: 8.2 µM [cytotoxic, partial curve] | –
C=Cc1ccc(Cn2c(C)c(C(=O)NCc3ccc(C#N)cc3)sc2=O)cc1 | inconclusive: 29.1 µM [cytotoxic, single point] | –
CC1CCc2c(sc(NC(=O)c3cc(-c4ccc(F)cc4)on3)c2C(N)=O)C1 (stereo not given) | – | inactive: 8.03%
COc1ccc2nc(-c3ccccn3)[nH]c2c1 | inconclusive: 14.6 µM [cytotoxic, single point] | –
CC1=C(CC/C(C)=N/NC(N)=S)C(C)(C)CCC1 | inconclusive: 12.6 µM [cytotoxic, single point] | –
Cc1ccccc1NCC(=O)N/N=C/C(Br)=C/c1ccccc1 | inconclusive: 18.4 µM [cytotoxic, single point] | –
CSCC(=O)NC1CCCc2c1cnn2-c1ccc(C)c(C)c1 (stereo not given) | – | inactive: -3.26%
O=C(Nc1ccc2c(c1)nc1n2CCN(Cc2ccccc2)C1)c1cccs1 | inconclusive: 22.4 µM [cytotoxic, single point] | –
COc1ccc(C(=O)N/N=C(\C)c2ccccn2)cc1OC | inconclusive: 1.64 µM [cytotoxic, full curve] | –
CC(C)CC(NC(=O)OCc1ccccc1)C(=O)NC(Cc1ccccc1)C(=O)CCl (stereo not given) | inconclusive: 20.6 µM [cytotoxic, single point] | –
COC(=O)c1ccc(C(=O)NN)cc1 | – | inactive: 16.2%
CCOc1ccccc1C=C1CCc2ccccc2C1=O | inconclusive: 18.4 µM [cytotoxic, partial curve, poor fit] | –
O=C(NCC1CCCO1)c1ccc2[nH]c3c(c2c1)CCCC3 (stereo not given) | inconclusive: 4.61 µM [cytotoxic, partial curve] | –
COc1cc(OC)cc(-c2sc3ccc(OC)cc3c2C#CC2(N)CCCCC2)c1 | inconclusive: 29.1 µM [cytotoxic, single point] | –
CCOC(=O)c1c(-c2ccc(-c3ccccc3)cc2)csc1NC(=O)CCN1CCOCC1 | inconclusive: 14.6 µM [cytotoxic, partial curve, poor fit] | –
O=C(COc1ccc(C(=O)c2ccccc2)cc1)NCc1ccc(F)cc1 | inconclusive: 1.03 µM [cytotoxic, full curve, poor fit] | –
CC(Oc1ccccc1F)C(=O)NNC(=O)C1CC(=O)N(c2ccc3c(c2)OCCO3)C1 (stereo not given) | – | inactive: 11.7%
Cc1cc(C)n(Cc2ccc(C(=O)N/N=C/c3ccc(-c4ccc([N+](=O)[O-])cc4)o3)o2)n1 | – | inactive: 11.2%
CCOc1ccc(NC(=O)CN(C)C(=O)c2n[nH]c(=O)c3ccccc23)cc1OCC | inconclusive: 16.4 µM [rising, single point] | –
COCCN(C(=O)CCc1nnc(Cc2c[nH]c3ccccc23)o1)C(C)C | – | inactive: 6.97%

An excerpt of these results, as comma-separated lines:
Compound,Potency,"activity change, negative = cytotoxic"
CC(C)CC(NC(=O)OCc1ccccc1)C(=O)NC(Cc1ccccc1)C(=O)CCl (stereo not given),"inconclusive: 20.6 µM [cytotoxic, single point]",–
COC(=O)c1ccc(C(=O)NN)cc1,–,inactive: 16.2%

Next part

Compound | Potency | activity change, negative = cytotoxic
O=C(Nc1nc2ccccc2s1)c1ccc([N+](=O)[O-])o1 | inconclusive: 29.1 µM [cytotoxic, single point] | –
O=C(CSCc1ccc(F)cc1)Nc1nc2c(s1)CCCC2 | inconclusive: 32.6 µM [cytotoxic, single point] | –
CCC/C(=C1/c2ccccc2C(=O)N1c1ccccc1)c1ccc(O[C@@H]2CCCCO2)cc1 | inconclusive: 29.1 µM [cytotoxic, single point] | –
COCCn1c(=O)[nH]c2cc(C(=O)Nc3cccc(C(C)=O)c3)ccc2c1=O | inconclusive: 20.6 µM [rising, partial curve, poor fit] | –
O=c1c(-c2ccco2)[n+]([O-])c2ccccc2n1OCc1ccccc1[N+](=O)[O-] | inconclusive: 23.1 µM [rising, partial curve, poor fit] | –
Nc1nc(Nc2ccccc2)nc(N2CCOCC2)c1[N+](=O)[O-] | inconclusive: 29.1 µM [rising, single point] | –
CSc1ccc(/C=C/c2ccnc3ccccc23)cc1 | inconclusive: 20.6 µM [rising, single point] | –
N#Cc1ccc(OCC(O)CN2CCN(c3ncc(C(F)(F)F)cc3Cl)CC2)cc1 (stereo not given) | active: 14.6 µM | –
O=c1oc2ccccc2cc1-c1cn2cc(Cc3ccc(Br)cc3)sc2n1 | inconclusive: 1.84 µM [cytotoxic, partial curve, poor fit] | –
O=c1c2sc3ccccc3c2n(Cc2cccc(C(F)(F)F)c2)c(=O)n1Cc1ccc(F)cc1 | – | inactive: -29.8%
CCn1c(SCC(=O)Nc2cccc(OC)c2)nnc1-c1ccc(Cl)cc1 | – | inconclusive: 33.4%
CN1c2ccccc2C(C)(C)C12CC(c1cccc(S(=O)(=O)N3CCCC3)c1)=NO2 (stereo not given) | inconclusive: 1.64 µM [cytotoxic, partial curve, poor fit] | –
Cc1ccc(-c2noc(CSc3nnc(-c4cccs4)n3C)n2)cc1 | – | inconclusive: -30.4% [cytotoxic]
COc1cc(C(=O)N2CCCc3ccccc32)cc(OC)c1OC | inconclusive: 29.1 µM [cytotoxic, single point] | –
CCOC(=O)Cc1csc(NC(=O)COc2ccccc2)n1 | – | inactive: 3.48%
O=c1oc2ccccc2cc1-c1cn2cc(Cc3ccccc3F)sc2n1 | inconclusive: 29.1 µM [cytotoxic, partial curve, poor fit] | –
O=C(c1cc2ccccn2n1)N1CCN(c2cccc(C(F)(F)F)c2)CC1 | inconclusive: 25.9 µM [cytotoxic, single point] | –
Cc1ccc(Cn2c(SCc3ccc(C(=O)NC4CCCC4)cc3)nc3ccncc32)cc1 | active: 23.1 µM | –
N=c1c2c3c(sc2ncn1Cc1ccccc1)CCCC3 | inconclusive: 32.6 µM [rising, single point] | –
CCn1c(=O)cc(OCC(=O)Nc2ccc(C)c(F)c2)c2ccccc21 | – | inactive: 16.9%
CN1OC[C@@H]2CN(C(=S)NCCc3ccccc3)[C@H](c3ccccc3Br)C[C@@H]21 | – | inactive: 0.0329%
Cn1c2ccccc2c(=O)c2c(=O)n(C3CCCCC3)c(-c3cccs3)nc21 | inconclusive: 29.1 µM [cytotoxic, single point] | –

Compound | Potency | activity change, negative = cytotoxic
Cc1ccc2nc(N(CCCN(C)C)C(=O)c3cc(-c4cccs4)nc4ccccc34)sc2c1 | inconclusive: 29.1 µM [cytotoxic, single point] | –
COc1cccc(CNc2ccc(S(N)(=O)=O)cc2)c1OCc1ccccc1F | inconclusive: 23.1 µM [cytotoxic, single point] | –
Cc1cccc(C(=O)NC2CCN(C(=O)Nc3ccccc3C)CC2)c1 | inconclusive: 0.103 µM [rising, full curve] | –
COC(=O)c1ccc(-n2c(C)cc(C(=O)CCl)c2C)cc1 | inconclusive: 29.1 µM [cytotoxic, single point] | –
Cc1ccc(-n2c(-c3ccco3)nc3c(cnn3-c3ccccc3C)c2=O)cc1 | inconclusive: 29.1 µM [cytotoxic, single point] | –
Cc1cc(C(=O)CSc2nnc(-c3ccccc3F)o2)c(C)n1Cc1cccs1 | – | inactive: -9.76%
O=C(COc1ccc(-n2ccnc2)cc1)Nc1cccc(Cl)c1 | inconclusive: 18.4 µM [cytotoxic, single point] | –
CCN1CSC(=S)N(Cc2ccccc2)C1 | inconclusive: 16.4 µM [cytotoxic, single point] | –
CCCC(=O)c1ccc(OC(=O)c2c(-c3ccccc3Cl)noc2C)cc1 | inconclusive: 25.9 µM [cytotoxic, partial curve, poor fit] | –
Cc1cc(=O)oc2cc(OCC3CC(c4ccc(Br)cc4)=NO3)ccc12 (stereo not given) | inconclusive: 18.4 µM [cytotoxic, single point] | –
C[C@@H]1O[C@H](C2CCCCC2)Cc2[nH][nH]c(=O)c21 | inconclusive: 8.2 µM [cytotoxic, partial curve] | –
COc1ccc(S(=O)(=O)N2CCCC2C(=O)Nc2nnc(-c3cccnc3)s2)cc1 (stereo not given) | – | inactive: 12.5%
CC1C(=O)N2CCCc3cc(S(=O)(=O)N4CCN(c5ccccc5F)CC4)cc1c32 (stereo not given) | inconclusive: 29.1 µM [cytotoxic, single point] | –
O=C1CC(N(CCc2ccccc2)C(=S)Nc2cc(Cl)ccc2Cl)C(=O)N1c1c(Cl)cccc1Cl (stereo not given) | inconclusive: 16.4 µM [cytotoxic, single point] | –
Cc1cccc(OCCN2C(=O)C(=O)c3cc(C)ccc32)c1 | inconclusive: 29.1 µM [cytotoxic, single point] | –
CC(C)Oc1ccc(CN2CCC2(C)C(=O)NCc2cccc3ccccc23)cc1 (stereo not given) | inconclusive: 29.1 µM [cytotoxic, single point] | –
COc1ccc(N2CCN(C(=O)c3ccc4c(Cl)c5c(nc4c3)CCCC5)CC2)cc1 | inconclusive: 29.1 µM [cytotoxic, partial curve, poor fit] | –
CC(C)Cn1c(N)c(C(=O)COC(=O)c2cc(-c3ccccc3)nc3ccccc23)c(=O)n(C)c1=O | inconclusive: 20.6 µM [cytotoxic, single point] | –
Cc1ccc(CNC(=O)C2CCN(S(=O)(=O)c3ccc4c(c3)CC(C)N4C(=O)C3CCC3)CC2)o1 (stereo not given) | inconclusive: 20.6 µM [cytotoxic, single point] | –
COc1cccc(NC(=O)NCCc2ccc(Cl)cc2)c1 | inconclusive: 29.1 µM [rising, single point] | –
COc1ccccc1NS(=O)(=O)c1cc(NC(=O)/C=C/c2cccs2)ccc1N1CCOCC1 | inconclusive: 2.59 µM [cytotoxic, full curve] | –

One compound at a time, as listed above.
Cc1cccc(OCCN2C(=O)C(=O)c3cc(C)ccc32)c1 is listed with Potency: inconclusive: 29.1 µM [cytotoxic, single point]
CC1C(=O)N2CCCc3cc(S(=O)(=O)N4CCN(c5ccccc5F)CC4)cc1c32 (stereo not given) is listed with Potency: inconclusive: 29.1 µM [cytotoxic, single point]
COC(=O)c1ccc(-n2c(C)cc(C(=O)CCl)c2C)cc1 is listed with Potency: inconclusive: 29.1 µM [cytotoxic, single point]
